{"source": "PubChem BioAssay AID504786 (Drosophila RNAi Screening Center, 2011)", "test": "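Fly genes required for HIF-dependent transcription when hypoxia is mimicked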 (primary screen)", "cells": "Drosophila S2 cells with a stable HIF luciferase reporter", "reagents": "long dsRNA against Drosophila genes, about 0.2 µg dsRNA per well of a 384-well plate", "time to read-out": "three days of knock-down, then 20 h of DFO before reading", "conditions": "desferrioxamine (DFO) at 100 µM, an iron chelator that mimics hypoxia, for 20 h", "read-out": "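HIF reporter luminescence in cells given 100 µM DFO for 20 h, using the mouse ldh-a hypoxia-response element, scored as per-plate z-scores; higher means greater loss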", "scale": "z-score: higher = stronger loss of HIF reporter signal", "note": "In all, the deposit lists about 21,000 reagents; shown is a random part of those with a known target gene and a result. 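Primary screen; positive scores mean lost reporter signal, so the sign may be inverted from the usual convention.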 The numbers tell different reagents against one gene apart. Not all columns of the deposit are shown."}
{"Target gene": "Cpr64Aa", "reagent no.": 1, "z-score, replicate 1": -0.5}
{"Target gene": "Gyc32E", "reagent no.": 1, "z-score, replicate 1": -0.3}
{"Target gene": "ApepP", "reagent no.": 1, "z-score, replicate 1": 0.1}
{"Target gene": "CG7791", "reagent no.": 1, "z-score, replicate 1": -0.3}
{"Target gene": "CG15213", "reagent no.": 1, "z-score, replicate 1": 1.4}
{"Target gene": "CG15198", "reagent no.": 1, "z-score, replicate 1": -0.1}
{"Target gene": "Prosbeta2R1", "reagent no.": 1, "z-score, replicate 1": -0.3}
{"Target gene": "Ing5", "reagent no.": 1, "z-score, replicate 1": 0.5}
{"Target gene": "Orct2", "reagent no.": 1, "z-score, replicate 1": -0.3}
{"Target gene": "CG15422", "reagent no.": 1, "z-score, replicate 1": -0.2}
{"Target gene": "Pkd2", "reagent no.": 1, "z-score, replicate 1": -0.2}
{"Target gene": "lds", "reagent no.": 1, "z-score, replicate 1": -0.2}
{"Target gene": "CG31365", "reagent no.": 1, "z-score, replicate 1": -0.2}
{"Target gene": "CG18853", "reagent no.": 1, "z-score, replicate 1": -0.2}
{"Target gene": "CG6052", "reagent no.": 1, "z-score, replicate 1": -0.1}
{"Target gene": "CG8565", "reagent no.": 1, "z-score, replicate 1": -0.1}
{"Target gene": "noc", "reagent no.": 1, "z-score, replicate 1": -0.1}
{"Target gene": "CG10486", "reagent no.": 1, "z-score, replicate 1": -0.2}
{"Target gene": "Prosalpha2", "reagent no.": 1, "z-score, replicate 1": 7.4}
{"Target gene": "CG15536", "reagent no.": 1, "z-score, replicate 1": -0.5}
{"Target gene": "Proc-R", "reagent no.": 1, "z-score, replicate 1": -0.2}
{"Target gene": "mRpS2", "reagent no.": 1, "z-score, replicate 1": 0.2}
{"Target gene": "Syx8", "reagent no.": 1, "z-score, replicate 1": -0.2}
{"Target gene": "Neto", "reagent no.": 1, "z-score, replicate 1": -0.4}
{"Target gene": "Neto", "reagent no.": 2, "z-score, replicate 1": -0.3}
{"Target gene": "Neto", "reagent no.": 3, "z-score, replicate 1": -0.1}
{"Target gene": "Neto", "reagent no.": 4, "z-score, replicate 1": -0.4}
